{"sequences": {"note": "The chains behind the UniProt entries cited, without tags or fusion partners.", "UniProt Q8NFD5": "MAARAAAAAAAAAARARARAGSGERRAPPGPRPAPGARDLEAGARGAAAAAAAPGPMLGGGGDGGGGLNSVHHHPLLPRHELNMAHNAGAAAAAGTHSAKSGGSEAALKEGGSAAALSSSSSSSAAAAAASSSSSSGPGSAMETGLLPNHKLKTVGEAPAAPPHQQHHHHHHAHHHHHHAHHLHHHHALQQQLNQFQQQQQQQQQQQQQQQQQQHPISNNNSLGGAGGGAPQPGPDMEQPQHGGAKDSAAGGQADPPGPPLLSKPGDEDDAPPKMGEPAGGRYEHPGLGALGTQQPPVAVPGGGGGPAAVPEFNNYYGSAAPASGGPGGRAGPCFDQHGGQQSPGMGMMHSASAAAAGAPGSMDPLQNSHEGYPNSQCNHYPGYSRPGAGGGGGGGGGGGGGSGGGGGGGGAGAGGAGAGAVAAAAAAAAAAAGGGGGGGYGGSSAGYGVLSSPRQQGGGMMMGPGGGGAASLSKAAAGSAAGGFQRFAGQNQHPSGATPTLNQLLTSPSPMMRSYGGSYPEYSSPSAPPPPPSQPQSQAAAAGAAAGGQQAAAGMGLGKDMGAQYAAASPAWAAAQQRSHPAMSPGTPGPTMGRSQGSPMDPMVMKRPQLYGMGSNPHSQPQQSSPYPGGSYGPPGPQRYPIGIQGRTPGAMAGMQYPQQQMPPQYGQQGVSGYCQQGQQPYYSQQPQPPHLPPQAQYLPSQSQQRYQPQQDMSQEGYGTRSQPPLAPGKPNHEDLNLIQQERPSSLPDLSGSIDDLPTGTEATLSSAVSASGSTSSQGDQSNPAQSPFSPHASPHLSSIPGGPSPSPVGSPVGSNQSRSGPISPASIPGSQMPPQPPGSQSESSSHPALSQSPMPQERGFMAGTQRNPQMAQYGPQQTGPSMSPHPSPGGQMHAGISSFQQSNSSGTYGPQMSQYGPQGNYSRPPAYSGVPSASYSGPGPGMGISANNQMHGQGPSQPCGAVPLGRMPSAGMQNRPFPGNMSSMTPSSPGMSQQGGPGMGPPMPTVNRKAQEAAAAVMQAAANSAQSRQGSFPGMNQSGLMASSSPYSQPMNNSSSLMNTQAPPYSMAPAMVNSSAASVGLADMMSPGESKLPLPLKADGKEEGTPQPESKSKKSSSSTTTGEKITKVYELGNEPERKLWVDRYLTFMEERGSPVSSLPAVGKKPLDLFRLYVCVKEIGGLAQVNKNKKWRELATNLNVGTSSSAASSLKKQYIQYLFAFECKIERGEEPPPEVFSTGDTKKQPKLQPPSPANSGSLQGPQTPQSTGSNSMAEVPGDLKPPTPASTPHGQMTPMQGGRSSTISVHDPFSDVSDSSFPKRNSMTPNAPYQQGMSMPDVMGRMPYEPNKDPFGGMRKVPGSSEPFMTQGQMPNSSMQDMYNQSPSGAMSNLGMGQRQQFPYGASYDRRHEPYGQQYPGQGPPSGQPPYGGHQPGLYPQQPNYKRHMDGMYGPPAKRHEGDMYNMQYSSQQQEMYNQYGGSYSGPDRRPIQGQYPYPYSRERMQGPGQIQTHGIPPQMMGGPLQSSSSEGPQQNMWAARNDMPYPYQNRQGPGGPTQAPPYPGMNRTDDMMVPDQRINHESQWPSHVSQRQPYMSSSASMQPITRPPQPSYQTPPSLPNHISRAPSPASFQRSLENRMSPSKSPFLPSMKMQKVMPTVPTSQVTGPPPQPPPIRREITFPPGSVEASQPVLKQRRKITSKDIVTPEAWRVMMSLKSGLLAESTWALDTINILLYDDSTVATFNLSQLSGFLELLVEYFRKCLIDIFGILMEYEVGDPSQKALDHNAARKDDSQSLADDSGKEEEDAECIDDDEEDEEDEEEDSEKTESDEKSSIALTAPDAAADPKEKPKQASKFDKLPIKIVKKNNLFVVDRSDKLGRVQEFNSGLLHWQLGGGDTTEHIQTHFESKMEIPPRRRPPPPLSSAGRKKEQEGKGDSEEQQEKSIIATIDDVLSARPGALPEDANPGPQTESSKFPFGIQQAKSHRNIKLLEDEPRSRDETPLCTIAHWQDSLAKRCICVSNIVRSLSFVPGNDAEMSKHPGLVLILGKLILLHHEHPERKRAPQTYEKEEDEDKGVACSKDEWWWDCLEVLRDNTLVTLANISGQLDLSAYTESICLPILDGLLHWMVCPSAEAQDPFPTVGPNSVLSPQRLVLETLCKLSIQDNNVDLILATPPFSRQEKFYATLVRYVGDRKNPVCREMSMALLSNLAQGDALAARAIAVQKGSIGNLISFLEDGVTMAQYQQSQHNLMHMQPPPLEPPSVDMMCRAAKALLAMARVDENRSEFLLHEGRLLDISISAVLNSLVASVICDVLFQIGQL"}, "source": "paper PMC12752504", "target": "ARID1B (human (endogenous in hiPSC-derived day 5 cells)) (UniProt Q8NFD5)", "test": "co-IP; anti-ARID1B antibody on Protein A Dynabeads incubated with 100 ug nuclear extract of SALL4-WT cells at day 5, 3 h at 4°C; washed five times with Buffer C (400 mM NaCl); immunoblot for SALL4; IgG as negative control", "note": "Results are given in words; binding and its absence hold for the method and conditions named. Binding seen in cells or lysates may run through a third protein. Some results given as binding are weak or reduced against the parent protein; the word gives no strength."}
{"substance": "SALL4A (from UniProt Q9UJQ4-1 1-1053)", "values": [{"measurement": "binding", "value": "binds"}]}
